Data as given in publication PMC6447414.
No constants are given. Whether binding was seen depends on the method and setting. Binding seen in cells or lysates may run through a third protein. Some binding calls cover weakened binding; strength is not graded here. Values belong to the binder of their own block, whether it stands above or below them.

How the values were obtained:
[1] = molecular target: T1, special AT-rich sequence-binding protein 2 (Satb2), endogenous in C2C12 (mouse (endogenous in C2C12)) (UniProt Q8VI24); experiment: co-IP; untransfected C2C12 cells in HKMG lysis buffer (10 mM HEPES pH 7.9, 100 mM KCl, 5 mM MgCl2, 10% glycerol, 1 mM DTT, 0.5% NP-40); 1 mg of protein with anti-Zfp423, anti-Satb2 or normal IgG on protein G-Dynabeads, 3 h at 4°C; Western blot
T1 sequence: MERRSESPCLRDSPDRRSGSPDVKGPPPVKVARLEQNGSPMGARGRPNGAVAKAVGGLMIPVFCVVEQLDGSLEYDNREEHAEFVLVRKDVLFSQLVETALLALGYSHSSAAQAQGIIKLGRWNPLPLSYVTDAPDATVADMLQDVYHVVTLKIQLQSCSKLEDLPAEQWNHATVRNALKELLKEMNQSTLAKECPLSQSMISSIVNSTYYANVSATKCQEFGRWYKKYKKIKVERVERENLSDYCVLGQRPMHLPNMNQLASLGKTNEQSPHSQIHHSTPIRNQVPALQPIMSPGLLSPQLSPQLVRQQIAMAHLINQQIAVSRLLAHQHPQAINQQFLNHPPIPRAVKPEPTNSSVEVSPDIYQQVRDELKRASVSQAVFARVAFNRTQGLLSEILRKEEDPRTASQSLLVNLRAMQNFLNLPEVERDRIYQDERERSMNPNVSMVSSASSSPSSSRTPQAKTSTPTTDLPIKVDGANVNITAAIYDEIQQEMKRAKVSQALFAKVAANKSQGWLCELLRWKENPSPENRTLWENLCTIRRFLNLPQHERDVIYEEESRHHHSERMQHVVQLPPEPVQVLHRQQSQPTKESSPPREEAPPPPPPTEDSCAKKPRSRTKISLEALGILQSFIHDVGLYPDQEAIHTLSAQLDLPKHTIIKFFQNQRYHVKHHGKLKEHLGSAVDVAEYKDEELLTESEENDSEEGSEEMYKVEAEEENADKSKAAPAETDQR

[2] = molecular target: T2, Satb2, endogenous in Sol8 (mouse (endogenous in Sol8)) (UniProt Q8VI24); experiment: co-IP; Sol8 cells; data not shown
T2 sequence: T1 sequence

binding [1]: binds
B1: Zfp423, endogenous in C2C12 (protein, UniProt Q80TS5 1-1292)
chain: MSRRKQAKPRSVKVEEGEASDFSLAWDSSVAAAGGLEGEPECDRKTSRALEDRNSVTSQEERNEDDEDVEDESIYTCDHCQQDFESLADLTDHRAHRCPGDGDDDPQLSWVASSPSSKDVASPTQMIGDGCDLGLGEEEGGTGLPYPCQFCDKSFIRLSYLKRHEQIHSDKLPFKCTFCSRLFKHKRSRDRHIKLHTGDKKYHCHECEAAFSRSDHLKIHLKTHSSSKPFKCSVCKRGFSSTSSLQSHMQAHKKNKEHLAKSEKEAKKDDFMCDYCEDTFSQTEELEKHVLTLHPQLSEKADLQCIHCPEVFVDESTLLAHIHQAHANQKHKCPMCPEQFSSVEGVYCHLDSHRQPDSSNHSVSPDPVLGSVASMSSATPDSSASVERGSTPDSTLKPLRGQKKMRDDGQSWPKVVYSCPYCSKRDFTSLAVLEIHLKTIHADKPQQSHTCQICLDSMPTLYNLNEHVRKLHKSHAYPVMQFGNISAFHCNYCPEMFADINSLQEHIRVSHCGPNANPPDGNNAFFCNQCSMGFLTESSLTEHIQQAHCSVGSTKLESPVVQPTQSFMEVYSCPYCTNSPIFGSILKLTKHIKENHKNIPLAHSKKSKAEQSPVSSDVEVSSPKRQRLSGSANSISNGEYPCNQCDLKFSNFESFQTHLKLHLELLLRKQACPQCKEDFDSQESLLQHLTVHYMTTSTHYVCESCDKQFSSVDDLQKHLLDMHTFVLYHCTLCQEVFDSKVSIQVHLAVKHSNEKKMYRCTACNWDFRKEADLQVHVKHSHLGNPAKAHKCIFCGETFSTEVELQCHITTHSKKYNCRFCSKAFHAVILLEKHLREKHCVFDAAAENGTANGVPPTSTKKAEPADLQGMLLKNPEAPNSHEASEDDVDASEPMYGCDICGAAYTMEVLLQNHRLRDHNIRPGEDDGSRKKAEFIKGSHKCNVCSRTFFSENGLREHLQTHRGPAKHYMCPICGERFPSLLTLTEHKVTHSKSLDTGTCRICKMPLQSEEEFIEHCQMHPDLRNSLTGFRCVVCMQTVTSTLELKIHGTFHMQKLAGSSAASSPNGQGLQKLYKCALCLKEFRSKQDLVRLDVNGLPYGLCAGCMARSANGQVGGLAPPEPADRPCAGLRCPECNVKFESAEDLESHMQVDHRDLTPETSGPRKGAQTSPVPRKKTYQCIKCQMTFENEREIQIHVANHMIEEGINHECKLCNQMFDSPAKLLCHLIEHSFEGMGGTFKCPVCFTVFVQANKLQQHIFAVHGQEDKIYDCSQCPQKFFFQTELQNHTMSQHAQ

binding [2]: binds
B2: Zfp423, endogenous in Sol8 (protein, UniProt Q80TS5 1-1292)
chain: B1 chain
